Patent publication US20240293418A1, “COMBINATION THERAPY FOR TREATING CANCER” (Epizyme, Inc., priority 2016, published 2024)
pIC50: −log10 of the molar value.

Legend:
Experiment in all cases: 7 day pretreatment + 4-day co-treatment combination model (Cell Titer Glo)
U266 = settings: Homo sapiens, U-266, 96 h, read-out: 4-day IC50
KMS-28-BM = settings: 96 h, read-out: 4-day IC50
L-363 = settings: Homo sapiens, L-363, 96 h, read-out: 4-day IC50
MM1.S = settings: Homo sapiens, 96 h, read-out: 4-day IC50

O=C(CCCCCCC(=O)Nc1ccccc1)NO [Vorinostat, vorinostat]
pIC50 (U266): 6.00
pIC50 (KMS-28-BM): 6.40
pIC50 (L-363): 6.25
pIC50 (MM1.S): 6.14
